# In US20250179125A1 (University of Washington, priority 2021, published 2025):
# Assay: Fmoc solid-phase peptide synthesis; Rink amide resin; DIC/Oxyma; HBTU/DIEA (manual)
# Details: whole synthesis
substance,measurement,value
Ac-RGEmNyFwMNEYYGWIMnCkMGR-NH2,final HPLC purity,>98%
